Data from PubChem BioAssay AID504408 (Broad Institute, 2011).
Among all 300,000 compounds or so, about 5,200 (1.7%) were called active. This list was built around the results that the source calls inconclusive (neither active nor inactive); the mix of calls is not that of the screen.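 How the source made its calls: active means mean replicate activation of at least 50% with a set share of replicates each reaching 50%; inconclusive means only one of those two conditions met; inactive means mean below 50% and too few replicates reaching it.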

experiment: HSF-1 activators, primary screen, NIH3T3-HGL cells, MG132 stress, luminescence, single point (AID 504408); conditions: NIH3T3-HGL HSF-1 luciferase reporter, MG132, 8 h; at 9 µM; active compounds read high; 100% = twice DMSO control signal;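 further: 0% = median of the neutral control wells and 100% = twice that signal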

| SMILES | activation |
| --- | --- |
| Oc1ccc2ccccc2c1C=NCc1cn2ccsc2n1 | inactive: 2.19% |
| COc1ccc(C(=O)N/N=C/C(=O)c2ccccc2)cc1 | inactive: 49.9% |
| O=C(Nc1ccc([N+](=O)[O-])cc1)C1COc2ccccc2O1 (configuration not stated) | inactive: 11.2% |
| CO/N=C/c1cc([N+](=O)[O-])ccc1Sc1ccc(C)cc1 | inconclusive: 52.8% |
| O=Cc1c(SCCO)nc2ccccn2c1=O | inconclusive: 50.7% |
| S=C(NNC(=S)Nc1ccccc1)Nc1ccccc1 | inconclusive: 50.5% |
| O=C(Oc1ccc2c(c1)OCO2)c1cc2c(s1)CCC2 | active: 80.8% |
| CCOC(=O)c1nnsc1Nc1ccc(C)c(C)c1 | inconclusive: 52.5% |
| O=C(CCN1CCN(S(=O)(=O)c2ccc(F)cc2)CC1)Nc1ccccc1F | inconclusive: 51.7% |
| O=C(N/N=C/C=C\c1ccco1)c1cccs1 | inconclusive: 51.6% |
| COC(=O)c1ccc(NC(=O)c2ccc(C)cc2)o1 | inconclusive: 50.3% |
| COc1cc(-c2nnc(SC/C=C/c3ccccc3)n2N)cc(OC)c1OC | active: 79.2% |
| O=C(Nc1cccnc1)c1cc(-c2cccs2)on1 | inactive: 7.17% |
| COc1ccc(/C=C2\SC(=O)N(CCC(=O)N3CCCCC3)C2=O)cc1OC | inconclusive: 53.3% |
| COc1ccc(/C=C/C(=O)c2cc(Br)ccc2O)cc1OC | active: 65.6% |
| CC1CCCCN1C(=O)c1cc(-c2ccc(Cl)c(Cl)c2)on1 (configuration not stated) | active: 57.1% |
| Cc1nnc(Sc2nc3c(c(=O)n(C)c(=O)n3C)n2Cc2ccccc2Cl)s1 | inconclusive: 50.3% |
| O=C(Cc1ccccc1)Nc1ccc2c(c1)CCC2 | inconclusive: 51.8% |
| CCOc1ccc(NS(=O)(=O)c2ccc(C(=O)N(CC)CC(=O)NCc3cccs3)cc2)cc1 | inactive: 12.3% |
| COc1ccc(OC)c(CCNC(=O)Cn2nc(C)c3c(C)n(-c4ccccc4)nc3c2=O)c1 | inactive: 12.9% |
| N/C(=N\OC(=O)c1ccc(Cl)cc1Cl)c1ccncc1 | inconclusive: 54.3% |

| SMILES | activation |
| --- | --- |
| S=c1[nH]cc(-c2ccccc2)n1-c1ccccc1Cl | active: 56.9% |
| C=CCn1c(SCC(=O)Nc2cc(NC(C)=O)ccc2OC)nnc1-c1cccnc1 | inconclusive: 60.1% |
| Cc1ccc(CN2CN(S(=O)(=O)c3cccs3)c3nc4ccccc4nc32)cc1 | inactive: 32.3% |
| CCSc1nsc(NC(=O)Nc2ccc(F)cc2F)n1 | inconclusive: 53.4% |
| O=C1CN(c2nc(-c3cccnc3)nc3sc4c(c23)CCCC4)CCN1 | inactive: -2.34% |
| Cc1cc(Nc2cccc([N+](=O)[O-])c2)n2c(nc3ccccc32)c1C#N | inactive: 40.5% |
| Cc1ccc2c(C(=O)CSc3ccccc3)c(C)[nH]c2c1 | active: 54.6% |
| CC(C)c1onc(C(=O)N(C)Cc2ccccc2)c1[N+](=O)[O-] | inactive: -1.4% |
| O=C(CSCc1ccccc1)N/N=C/c1ccccc1OCc1ccccc1 | inactive: -2.28% |
| CN(C)S(=O)(=O)N1CCC(Oc2ccc(C(=O)NC3CCOC(C)(C)C3)cc2)CC1 (configuration not stated) | inactive: -5.53% |
| Cc1cccc(-c2nnc(-c3ccccc3)o2)c1 | inconclusive: 50.4% |
| O=C(CCc1nnc(Cc2ccc(-c3ccccc3)cc2)o1)N1CCCC1 | active: 69.8% |
| COc1ccc(C2=NCN(c3ccc(C)cc3)C(=S)N2)cc1 | inconclusive: 52.9% |
| O=C(CSc1nc2[nH]ncc2c(=O)n1-c1ccccc1)NCCc1ccccc1 | inactive: -13% |
| Clc1ccc2nc(COc3ccccc3)[nH]c2c1 | inactive: 34.3% |
| CCC1CCCCN1C(=O)CSc1nc(N)cc(N)n1 (configuration not stated) | inconclusive: 51.6% |
| C=CC(=O)Oc1ccc(N2Cc3ccccc3C2=O)cc1 | active: 69.9% |
| O=C(CN1CC(=O)Oc2ccccc21)OCC(=O)c1ccccc1 | inconclusive: 50% |
| COC(=O)/C(C#N)=C/c1c(N2CCCCCC2)nc2c(C)cccn2c1=O | inconclusive: 50.7% |
| O=C1CSC(c2ccccc2)N1Cc1ccccn1 (configuration not stated) | inactive: 8.55% |
| CCc1ccc(NC(=O)c2cc(-c3ccco3)on2)cc1 | active: 80.3% |

| SMILES | activation |
| --- | --- |
| O=C(NCCCNC(=O)c1ccccc1Br)c1ccccc1Br | inconclusive: 50.9% |
| CSc1ccc(/C=C(\NC(=O)c2ccc(C)cc2)C(=O)NN)cc1 | inactive: 15.2% |
| COc1cccc(/C=C/C(=O)c2ccc[nH]2)c1 | active: 86.2% |
| CCCCCOc1ccc(CSc2n[nH]c(C)n2)cc1 | inactive: 49% |
| COC(C[C@@H]1O[C@@H]1[C@@H](O)COCc1ccccc1)OC | inactive: 7.56% |
| O=c1[nH]c(-c2ccccn2)nc2sc(-c3ccccc3)cc12 | inconclusive: 59.9% |
| Cn1c(SCC(=O)NCC2CCCO2)ncc(C(=O)Nc2ccccc2)c1=O (configuration not stated) | inconclusive: 61.4% |
| Cc1ccc(S(=O)(=O)N(CC(=O)NC2CCCC2)c2cccc(C)c2)cc1 | inconclusive: 52.8% |
| CCC(=O)Nc1nc(-c2cc([N+](=O)[O-])cs2)cs1 | inactive: 6.74% |
| O=C(Nc1ccc(C2SCCS2)cc1)c1ccccc1 | active: 54.2% |
| COC(=O)c1ccc(Nc2cc(C)nc3ccc(C)cc23)cc1 | inactive: 4.24% |
| COc1ccc(NC(=O)c2sccc2SCc2cccc(C(F)(F)F)c2)cc1 | inconclusive: 52.8% |
| c1cncc(-c2nc3cc4ccccc4cc3[nH]2)c1 | inconclusive: 55.5% |
| Cn1c2ccccc2c2ncn(CCC3=CCCCC3)c(=O)c21 | active: 61% |
| COc1ccc(CN2CCN(Cc3cc4ccccc4o3)CC2CCO)cc1C (configuration not stated) | inactive: -6.11% |
| O=C1CC(c2ccccc2)Cc2nc(N3CCc4ccccc43)ncc21 (configuration not stated) | inactive: 3.7% |
| CCOc1ccc(NC(=O)CC2C(=O)N(C)C(=S)N2CCCc2ccccc2)cc1 (configuration not stated) | inactive: 17% |
| c1ccc(N2N=C(c3cccs3)CC2c2ccco2)cc1 (configuration not stated) | inconclusive: 60.4% |
| CCc1nc(SCC(=O)c2cccc([N+](=O)[O-])c2)n[nH]1 | inconclusive: 51.2% |
| COC(=O)c1cc(=O)n(Cc2ccco2)c(=Nc2ccc(F)c(Cl)c2)s1 | inconclusive: 50.2% |
